Data taken from patent US12404332B2, “Methods for diagnosing and treating cancers” (Research Development Foundation, priority 2020, dated 2025).
Some results were stated once for a whole list of compounds, not compound by compound.

System: PD-L1
Experiment: Tumor cell PD-L1 depletion by drugs (flow cytometry, immunoblot)
Format: cell-based
Conditions: over 2-3 days, depending on the cell type, variety of human and mouse tumor lines
Procedure: High throughput Screening: B16 PD-L1 RFP cells were treated with 2.5 and 10 μM compounds from the Prestwick and LOPAC Libraries for 48 hours using the Agilent Bravo liquid pipetting platform. Then, cells were washed with PBS, and fixed with 4% paraformaldehyde (Electron Microscopy Sciences, Hatsfield, PA, Cat 15714S) and labeled with 2 μg/ml DAPI, (Molecular Probes, Cat D1306) and 1 μg/ml Cell Mask-Blue (Invitrogen, Cat. H32720). Plates were then imaged using the Operetta High Content Imaging System, Perkin Elmer, Waltham (DAPI and Cell Mask Blue, Ex 360-400, Em 410-480), and the RFP channels (Ex 520-550, Em 560-630) channels. […]
Flow cytometry: Mice were sacrificed by cervical dislocation after induction of deep isoflurane anesthesia. ID8agg tumors were collected and cells were stained as described (Derup et al., 2020) using LSR II hardware and analyzed by FACS Diva (BD Bioscience) or Flow Jo software (Flow Jo, LLC). […]
Western blotting and immunoprecipitation: To prepare whole cell lysates, cells were harvested and lysed in RIPA (radioimmunoprecipitation assay) buffer plus 1 mM phenylmethylsulphonyl fluoride and Halt protease/phosphatase inhibitor cocktail (Thermo Scientific) at 4° C. Protein concentrations were measured by BCA Protein Assay Kit (Thermo Scientific). […] Specific antibody binding was detected by chemiluminescence using Western Lightening Plus regent (Perkin Elmer). […]

O=C(O)CCCc1ccc(N(CCCl)CCCl)cc1 [chlorambucil] was tested, and the “reduced surface tumor PD-L1” value was 30-70%.
